Hit rate of the full screen: of about 390,000 compounds, about 4,000 (1%) were called active. The inconclusive results got no clear call from the source; some entries with a clear call stand among them for comparison. The call rests on the fitted dose curve; in most records, active means well fitted inhibition curve with a large enough effect; inconclusive means small, poorly fitted or top-dose-only effect, or another doubt; inactive means no such curve, though single readings can be large or run the other way. A potency beside an inconclusive call is a rough fit, not a confirmed value.
The molecules below were run against DNA polymerase iota (Homo sapiens) (UniProt Q9UNA4) (assay: qHTS for Inhibitors of Polymerase Iota). Settings: Pol iota fluorescent replication assay, 10 min; series mostly up to 115 µM.
Outline: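 Fluorescent replication assay read twice, at 0 min and 10 min after adding 50 nM (final) substrate. Enzyme (10 nM) and compounds were first incubated 15 min at room temperature; enzyme-free buffer wells were negative controls.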
Potency means the concentration at half of the fitted maximal effect.

Protein sequences, listed by entry. Tags and fused reporters are not part of them. Lines headed by an entry give the natural chain unless they say otherwise; changes in a name come on top.
UniProt Q9UNA4: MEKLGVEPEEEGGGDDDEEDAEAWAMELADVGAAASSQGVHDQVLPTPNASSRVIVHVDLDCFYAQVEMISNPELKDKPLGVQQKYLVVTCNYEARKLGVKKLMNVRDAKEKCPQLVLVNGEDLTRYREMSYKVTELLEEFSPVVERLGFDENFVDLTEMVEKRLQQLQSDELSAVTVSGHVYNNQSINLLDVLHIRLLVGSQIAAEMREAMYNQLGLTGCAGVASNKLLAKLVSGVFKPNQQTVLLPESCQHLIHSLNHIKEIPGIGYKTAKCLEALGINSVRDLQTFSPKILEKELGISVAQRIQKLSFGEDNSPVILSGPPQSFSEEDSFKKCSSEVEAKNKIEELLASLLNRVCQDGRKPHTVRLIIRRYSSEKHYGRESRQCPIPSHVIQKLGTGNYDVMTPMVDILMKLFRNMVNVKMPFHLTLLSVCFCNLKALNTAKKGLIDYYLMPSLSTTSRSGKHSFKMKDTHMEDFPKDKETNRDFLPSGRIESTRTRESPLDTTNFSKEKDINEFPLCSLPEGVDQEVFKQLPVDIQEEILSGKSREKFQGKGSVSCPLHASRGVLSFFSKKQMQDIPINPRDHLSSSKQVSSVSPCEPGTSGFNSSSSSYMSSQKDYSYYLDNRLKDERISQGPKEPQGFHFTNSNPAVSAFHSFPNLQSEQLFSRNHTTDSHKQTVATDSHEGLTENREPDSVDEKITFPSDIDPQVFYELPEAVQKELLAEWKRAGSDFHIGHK

SMILES	Potency
Cc1cc(C(=O)O)ccc1-n1c(C)cc(/C=C(/C#N)C(=O)Nc2ccccc2)c1C	active: 79.4 µM
O=C(Nc1ccc(Cl)c(Cl)c1)Nc1nnc(-c2ccncc2)s1	inconclusive: 3.16 µM [inhibitor, full curve, poor fit]
COc1ccc(/C=C/C(=O)O)cc1S(=O)(=O)NCc1ccco1	inconclusive: 35.5 µM [inhibitor, partial curve]
O=c1c2cc(Br)ccc2nc(-c2ccccc2)n1O	inconclusive: 17.8 µM [inhibitor, partial curve, poor fit]
CC(C)n1nnnc1SCC(=O)NCc1cccs1	inconclusive: 39.8 µM [inhibitor, single point]
CC(=O)Nc1ccc(NC(=S)NC(=O)/C=C/c2ccccc2)cc1	inconclusive: 28.2 µM [inhibitor, single point]
CC1CCN(CC(=O)n2c3c(c4ccccc42)CCCC3)CC1	inconclusive: 14.1 µM [inhibitor, partial curve, poor fit]
Cc1oc(-c2ccccc2)cc1C(N)=O	inconclusive: 39.8 µM [inhibitor, single point]
CCOC(=O)c1ccc(NC(=O)CC2Nc3cccc4cccc(c34)NC2=O)cc1 (stereo not drawn)	active: 3.55 µM
CCC1Cc2c(nc(N)c3c(N)nc(N4CCCCC4)c(C#N)c23)O1 (stereo not drawn)	inactive
O=C(O)COn1c(-c2ccccc2)nc2ccc([N+](=O)[O-])cc21	inconclusive: 25.1 µM [inhibitor, full curve, poor fit]
CCc1ccc(/C=C/c2c([N+](=O)[O-])c(=O)n(C)c(=O)n2C)cc1	inconclusive: 44.7 µM [inhibitor, partial curve]
COc1ccc(OC)c(NC(=O)c2nc(S(=O)(=O)Cc3ccccc3)ncc2Cl)c1	inconclusive: 28.2 µM [inhibitor, partial curve, poor fit]
CN(CC(=O)Nc1ccccc1C(F)(F)F)C(=O)c1cccc(-n2cccc2)c1	inconclusive: 39.8 µM [inhibitor, partial curve]
CCOCCCNC1=C(Cl)C(=O)c2ccccc2C1=O	inconclusive: 12.6 µM [inhibitor, partial curve, poor fit]
CCOc1ccc(C)cc1S(=O)(=O)n1cnc2ccccc21	inactive
Cn1c(=O)c2cc(S(=O)(=O)NCCC(=O)Nc3ccc(Cl)cc3)ccc2n(C)c1=O	inconclusive: 39.8 µM [inhibitor, partial curve, poor fit]
Cc1ccc(NC(=O)/C(C#N)=C\c2ccc(-c3ccc(Cl)cc3)o2)c(C)c1	inactive
COCCN1Cc2cccc(C(=O)Nc3ccc(C(=O)OC)cc3)c2C1=O	inactive
COC1=CC(=Cc2c(N)n3nc(CC(=O)N4CCCCC4)sc3nc2=O)C=C(OC)C1=O	inconclusive: 39.8 µM [inhibitor, partial curve]
CCNc1nc(NCC)n2c(SCc3ccc(F)cc3)nnc2n1	inconclusive: 112 µM [inhibitor, partial curve, poor fit]

5 entries picked at random from those above:
SMILES	Potency
O=c1c2cc(Br)ccc2nc(-c2ccccc2)n1O	inconclusive: 17.8 µM [inhibitor, partial curve, poor fit]
CC1CCN(CC(=O)n2c3c(c4ccccc42)CCCC3)CC1	inconclusive: 14.1 µM [inhibitor, partial curve, poor fit]
Cn1c(=O)c2cc(S(=O)(=O)NCCC(=O)Nc3ccc(Cl)cc3)ccc2n(C)c1=O	inconclusive: 39.8 µM [inhibitor, partial curve, poor fit]
CCOCCCNC1=C(Cl)C(=O)c2ccccc2C1=O	inconclusive: 12.6 µM [inhibitor, partial curve, poor fit]
Cc1oc(-c2ccccc2)cc1C(N)=O	inconclusive: 39.8 µM [inhibitor, single point]

More compounds follow:

SMILES	Potency
O=C(C[n+]1cccc(Br)c1)c1cc(Cl)ccc1Cl	inconclusive: 89.1 µM [inhibitor, partial curve, poor fit]
O=C(CCc1ccccc1)NNC(=O)COc1ccc(Br)cc1	active: 50.1 µM
CN(c1ccccc1)S(=O)(=O)c1nnc(NC(=O)c2ccco2)s1	inconclusive: 56.2 µM [inhibitor, single point]
O=C(Cc1ccc(S(=O)(=O)N2CCOCC2)s1)NCCC(c1ccccc1)c1ccccc1	inconclusive: 20 µM [inhibitor, full curve, poor fit]
CCN(CC)S(=O)(=O)c1ccc(C(=O)NCc2ccc3c(c2)cc(C)n3C)cc1	inconclusive: 50.1 µM [inhibitor, single point]
CCn1c(=O)c2c(nc3n2CCCN3CCc2ccccc2)n(C)c1=O	inconclusive: 44.7 µM [inhibitor, partial curve, poor fit]
COc1ccc(NC(=O)c2ccco2)c(NC(=O)Cc2cccs2)c1	inactive
Cc1ccc(N/N=C(\C#N)C(N)=S)c(C)c1	inconclusive: 22.4 µM [inhibitor, partial curve]
Cc1cc(C)c(S(=O)(=O)NCC(c2cccnc2)N2CCN(Cc3ccccc3)CC2)c(C)c1 (stereo not drawn)	inconclusive: 79.4 µM [inhibitor, single point]
CC(C)Cc1nn2c(=O)cc(COC(=O)c3ccccc3NC(=O)c3cccs3)nc2s1	inactive
CC1=NN(c2ccccc2)C(=O)C1C(=O)c1ccc(Cl)cc1 (stereo not drawn)	inconclusive: 7.94 µM [inhibitor, full curve, poor fit]
O=C(O)CCc1c2ccc(=O)c(O)c-2oc2c(O)c(O)ccc12	inconclusive: 0.316 µM [inhibitor, full curve, poor fit]
Cc1cccc(NC(=O)CCN2CCC(C)CC2)c1	inconclusive: 100 µM [inhibitor, single point]
O=C(CCc1nc2ccccc2c(=O)[nH]1)NCC(=O)Nc1ccc(F)c(F)c1	inactive
COC(=O)c1ccccc1S(=O)(=O)N1CCC(C(=O)OCC(=O)NCC(F)(F)F)CC1	inconclusive: 100 µM [inhibitor, single point]
CCC(C)/C=C/C1=CC2=C(Cl)C(=O)C3(C)OC(=O)C(C(=O)C(C)C(C)O)C3C2=CO1 (stereo not drawn)	inconclusive: 79.4 µM [inhibitor, partial curve, poor fit]
COc1ccc(CNC(=O)C2CCN(S(=O)(=O)c3ccc4nc5c(c(C(=O)O)c4c3)CCCC5)CC2)cc1	inconclusive: 0.316 µM [inhibitor, full curve, poor fit]
Cc1c(Cc2ccccc2)c(=O)oc2cc(OCc3nn[nH]n3)ccc12	inconclusive: 22.4 µM [inhibitor, full curve, poor fit]
O=C(N/N=C/c1cccc(Br)c1)c1ccc(Br)cc1	inconclusive: 5.01 µM [inhibitor, full curve]
Cc1cc(C)c2c(c1)C1C=CCC1C(C(=O)O)N2 (stereo not drawn)	inconclusive: 12.6 µM [inhibitor, full curve, poor fit]
O=S1(=O)CCC(N=Nc2c(O)n(Cc3ccccc3)c3ccccc23)C1 (stereo not drawn)	inconclusive: 50.1 µM [inhibitor, partial curve, poor fit]

SMILES	Potency
CC1(C)CC(O)CC(C)(C)N1CC(O)COCc1ccccc1 (stereo not drawn)	inconclusive: 89.1 µM [inhibitor, partial curve, poor fit]
CCc1cccc(C)c1NC(=O)C1CCN(c2nnc(C)c3c(C)n(-c4ccccc4)nc23)CC1	inconclusive: 89.1 µM [inhibitor, single point]
COc1ccccc1CNC(=O)C(C)Sc1ccsc1[N+](=O)[O-] (stereo not drawn)	inconclusive: 31.6 µM [inhibitor, partial curve, poor fit]
COc1c(Cl)cc(C(=O)O)cc1Cl	inconclusive: 79.4 µM [inhibitor, single point]
C[C@H](NC(=O)c1ccccc1)C(=O)OCC(=O)Nc1ccc2c(c1)OCO2	inconclusive: 11.2 µM [inhibitor, partial curve, poor fit]
Nc1nnc(SCC(=O)Nc2cccc(F)c2)s1	inactive
S=c1nc(-c2ccccc2)oc2c1CCCC2	inconclusive: 28.2 µM [inhibitor, single point]
CC(=O)NCCn1c(SCC(=O)NCc2ccco2)nc2ccccc2c1=O	inactive
O=C(O)COCCN1CCN(C(c2ccccc2)c2ccc(Cl)cc2)CC1 (stereo not drawn)	inconclusive: 5.01 µM [inhibitor, full curve, poor fit]
NS(=O)(=O)c1ccc(CCNC(=O)C2Cc3ccccc3CN2C(=O)c2ccco2)cc1 (stereo not drawn)	inconclusive: 126 µM [inhibitor, partial curve, poor fit]
Cc1nc2c(C(=O)NCc3ccccc3Cl)c[nH]n2c(=O)c1Cl	inconclusive: 28.2 µM [inhibitor, full curve]
O=C(NNC(=O)C1COc2ccccc2O1)c1ccccc1O (stereo not drawn)	inactive
COc1ccc(C2/C(=C(/O)c3ccc4c(c3)CC(C)O4)C(=O)C(=O)N2CCN2CCOCC2)cc1 (stereo not drawn)	inconclusive: 22.4 µM [inhibitor, single point]
CCc1cc(-c2n[nH]c(=S)n2N)n(C)n1	inconclusive: 0.891 µM [inhibitor, partial curve, poor fit]
COc1ccccc1C(=O)Nc1cccc(OCc2cc(=O)n3c(C)csc3n2)c1	inconclusive: 39.8 µM [inhibitor, partial curve, poor fit]
N#CC(C#N)=CC1=C2OC(c3ccccc3)=CC(c3ccccc3)=C2CCC1	inconclusive: 100 µM [inhibitor, partial curve, poor fit]
CC1CN=C(NC2CCCCC2C)S1 (stereo not drawn)	inconclusive: 25.1 µM [inhibitor, partial curve, poor fit]
CCCn1c(N)c(C(=O)CSc2nnnn2-c2ccc(O)cc2)c(=O)n(C)c1=O	inconclusive: 3.16 µM [inhibitor, full curve, poor fit]
CCC(Sc1ncc(S(=O)(=O)c2ccc(C)cc2)c(=O)[nH]1)C(=O)Nc1cc(C)ccc1C (stereo not drawn)	inconclusive: 89.1 µM [inhibitor, single point]
O=C1c2ccccc2NC(c2cccc(Cl)c2)N1N=C1CCCCCC1 (stereo not drawn)	inactive
O=C(CCNS(=O)(=O)c1cccc(Cl)c1)OCC(=O)N1CCN(C(=O)c2ccco2)CC1	inconclusive: 39.8 µM [inhibitor, partial curve]
